Results from patent US12410211B2 (PharmaIN Corporation, priority 2020, dated 2025).
Some peptides are written in HELM: one residue between dots, names in brackets for other building blocks, links after the first $.

Experiment: general procedure: Fmoc solid-phase peptide synthesis; Rink Amide Resin-ProTide (0.59 mmol/g)
Conditions: whole synthesis, Analytical HPLC, Waters XSelect Peptide CSH C18, 220 nm, TFA salt
[1] = one disulfide bridge, sequence written open

Substance	final HPLC purity [1]	further results
Mpa-Tyr-Phe-Gln-Asn-Cys-Pro-Lys(X)a-Gly [SEQ ID NO. 21]; X is Gly and a is 7	–	final HPLC purity (one disulfide bridge): 95%
Mpa-Tyr-Phe-Gln-Asn-Cys-Pro-Lys(X)a-Gly [SEQ ID NO. 22]; X is Gly and a is 8	–	final HPLC purity (one disulfide bridge): 90%
Mpa-Tyr-Phe-Gln-Asn-Cys-Pro-Lys(X)a-Gly-NH2; (X)a = (Gly)6	96%	–
Mpa-Tyr-Phe-Gln-Asn-Cys-Pro-Lys(X)a-Gly-NH2; (X)a = (Gly)9	93%	–
Mpa-Tyr-Phe-Hgn-Asn-Cys-Pro-Dap-Gly-NH2	86%	–
Mpa-Tyr-Phe-Hgn-Asn-Cys-Pro-Lys(X)-Gly-NH2; X = Gly	92%	–
Mpa-Tyr-Phe-Hgn-Asn-Cys-Pro-Lys(X)a-Gly-NH2; (X)a = (Gly)2	94%	–
Mpa-Tyr-Phe-Hgn-Asn-Cys-Pro-Lys(X)a-Gly-NH2; (X)a = (Gly)3	95%	–
Mpa-Tyr-Phe-Hgn-Asn-Cys-Pro-Lys(X)a-Gly-NH2; (X)a = (Gly)4	91%	–
Mpa-Tyr-Phe-Hgn-Asn-Cys-Pro-Lys(X)a-Gly-NH2; (X)a = (Gly)5	93%	–
Mpa-Tyr-Phe-Hgn-Asn-Cys-Pro-Lys(X)a-Gly-NH2; (X)a = (Gly)6	90%	–
Mpa-Tyr-Phe-Hgn-Asn-Cys-Pro-Lys(X)a-Gly-NH2; (X)a = (Gly)7	89%	–
Mpa-Tyr-Phe-Hgn-Asn-Cys-Pro-Lys(X)a-Gly-NH2; (X)a = (Gly)8	87%	–
Mpa-Tyr-Phe-Hgn-Asn-Cys-Pro-Lys(X)a-Gly-NH2; (X)a = (Gly)9	86%	–
PEPTIDE1{[Mpa].Y.F.[Hgn].N.C.P.K.G.[am]}|PEPTIDE2{[Ado12]}$PEPTIDE1,PEPTIDE1,1:R3-6:R3|PEPTIDE1,PEPTIDE2,8:R3-1:R2$$$V2.0	–	final HPLC purity: 91%
PEPTIDE1{[Mpa].Y.F.[Hgn].N.C.P.[dK].G.[am]}$PEPTIDE1,PEPTIDE1,1:R3-6:R3$$$V2.0	–	final HPLC purity: 91%
